PubChem BioAssay AID504764, Drosophila RNAi Screening Center – 2011
Assay: 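Genome-wide screen for regulators of Notch-driven gene expression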 (primary screen). Cell system: Drosophila Kc167 cells. Knock-down reagent: long dsRNA against Drosophila genes. Duration: about 5 days (4 days dsRNA, then 24 h after transfection). Treatment: transfection of constitutively active membrane-tethered Notch lacking the extracellular domain, read 24 h later. Measurement: 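Firefly luciferase from an E(spl)m3 reporter with active Notch, plus control-promoter and uninduced reporter wells for normalisation; unnormalised counts, duplicate wells a and b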. Direction: induced reporter light, run 1, well a and induced reporter light, run 1, well b: higher = more light from the Notch target reporter with active Notch; control promoter light, run 1, well a and control promoter light, run 1, well b: higher = more light from the viral control promoter (cell number, transfection, viability); uninduced reporter light, run 1, well a: higher = more light from the Notch target reporter without active Notch. Call rule: 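Wells with low control signal or poorly matching duplicates excluded; duplicates averaged; per source plate, z beyond ±2 for induced/control log2 ratio or beyond ±1.8 for induced/uninduced marks a hit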. Calls: active = modifier hit (raised or lowered Notch signal); inactive = not a hit.
The deposit covers about 22,000 reagents; this is a random part of those with a known target gene and a result. Over the whole deposit, 403 (1.9%) were called active. 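Unnormalised raw counts per well; ratio z-scores behind the hit calls and whether each hit raises or lowers signal are not deposited.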 No sequences are given here. Not stated in the record: the amount of reagent.

Gene	PubChem SID	induced reporter light, run 1, well a	induced reporter light, run 1, well b	control promoter light, run 1, well a	control promoter light, run 1, well b	uninduced reporter light, run 1, well a	activity call
CG13731 (GeneID 39938)	SID104189851	1.91e5	2.15e5	2.63e5	2.17e5	5780	inactive
Uch-L5R (GeneID 32173)	SID104199617	1.25e5	1.29e5	2.39e5	2.47e5	8725	inactive
fid (GeneID 43148)	SID104194677	1.09e5	83350	83220	73770	10732	inactive
fid (GeneID 43148)	SID104196256	1.04e5	95180	1.35e5	1.23e5	10705	inactive
fend (GeneID 31843)	SID104197393	97970	76630	87300	79785	6210	inactive
fend (GeneID 31843)	SID104197659	43230	57285	70095	76480	3780	inactive
CG8564 (GeneID 38825)	SID104190789	1.20e5	1.09e5	55735	37515	8925	inactive
Pnn (GeneID 41185)	SID104196207	86310	87855	80035	52495	5795	inactive
Vha36-2 (GeneID 36328)	SID104186086	77555	70805	99915	92105	8388	inactive
Gbp3 (GeneID 42709)	SID104194998	1.97e5	1.45e5	2.07e5	2.07e5	13665	inactive
CG33111 (GeneID 50068)	SID104194000	1.85e5	1.81e5	2.12e5	2.16e5	17805	inactive
CG33111 (GeneID 50068)	SID104194236	1.43e5	1.52e5	2.13e5	2.06e5	13445	inactive
mew (GeneID 32275)	SID104198763	83790	80075	1.05e5	94720	6600	inactive
mew (GeneID 32275)	SID104200144	1.17e5	1.14e5	2.15e5	1.96e5	8585	inactive
Nnf1a (GeneID 37325)	SID104186186	1.83e5	1.51e5	3.20e5	2.25e5	10165	inactive
CG32036 (GeneID 39105)	SID104190154	1.15e5	92895	83260	64040	8000	inactive
Pex14 (GeneID 40294)	SID104191546	1.40e5	1.02e5	1.00e5	1.11e5	8390	inactive
CG14177 (retired record) (GeneID 39113)	SID104189968	1.75e5	1.24e5	2.36e5	2.15e5	8850	inactive
lama (GeneID 38610)	SID104191153	57100	52400	40935	22285	5988	inactive
Best3 (GeneID 39661)	SID104189672	2.24e5	1.67e5	2.00e5	2.23e5	7750	inactive
Tsp26A (GeneID 33838)	SID104182927	1.74e5	1.19e5	1.78e5	1.51e5	8935	inactive
Snx6 (GeneID 34126)	SID104182873	1.47e5	1.71e5	1.72e5	1.91e5	14575	inactive
MED18 (GeneID 31140)	SID104198341	1.05e5	1.07e5	1.99e5	2.25e5	10295	inactive
tei (GeneID 36521)	SID104187408	85035	96135	1.45e5	1.29e5	9510	inactive
SLC22A (GeneID 40437)	SID104191618	28460	28755	37910	28045	2405	inactive
SLC22A (GeneID 40437)	SID104191619	36065	33605	29250	30565	3160	inactive
CG8405 (GeneID 36772)	SID104185391	1.19e5	1.40e5	1.67e5	1.52e5	11465	inactive
CG8405 (GeneID 36772)	SID104186958	89490	1.00e5	1.50e5	1.15e5	6505	inactive
chk (GeneID 35578)	SID104184786	1.90e5	1.50e5	1.75e5	1.85e5	13210	inactive
tra2 (GeneID 36619)	SID104187500	1.55e5	1.61e5	1.58e5	1.59e5	16235	inactive
CG13154 (GeneID 36359)	SID104186071	1.02e5	1.03e5	1.45e5	1.19e5	10120	inactive
sofe (GeneID 32016)	SID104199543	1.97e5	1.92e5	2.42e5	2.62e5	16185	inactive
CG4593 (GeneID 31649)	SID104198166	1.60e5	1.53e5	3.22e5	2.75e5	12805	inactive
Acer (GeneID 34189)	SID104181644	3.20e5	2.73e5	2.53e5	2.75e5	25255	inactive
